The source of these data is publication PMC7986153 (Angewandte Chemie (International Ed. in English), 2021).

HELM strings list residues between dots; [ac] is acetyl, [am] amide, other brackets name non-standard units. A value given as a limit tells only on which side of the number the result lay.

This data set can be described thus: general procedure: peptide synthesis; Polystyrene resin with a 2-chlorotrityl chloride linker; COMU, Oxyma, DIPEA. Particulars: whole synthesis.

In the case of “PEPTIDE1{[ac].I.E.P.D.[PABA-dioxetane]}$$$$V2.0”, for the setting “HPLC-MS at 220 nm”, the “final HPLC purity” value is >95%. The isolated yield result (overall) is “around 30%”.
